Data as given in PubChem BioAssay AID652259 (Drosophila RNAi Screening Center, 2013).
The screen tested about 22,000 reagents; this is a random part of those with a known target gene and a result. Over the whole deposit, 233 (1.1%) got an active call. 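Light values are raw, unnormalised plate reads; the ratio scores behind the reporter calls were not deposited.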 The numbers tell different reagents against one gene apart. Names joined by + are all predicted targets of the reagent. Not given: the amount of reagent, the time to read-out, the dose of the treatment.

- Assay: 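Knock-downs that push a Wingless-driven reporter up or down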 (primary screen)
- System: Drosophila clone 8 imaginal disc epithelial cells
- Reagents: long dsRNA against Drosophila genes
- Treatment: pathway stimulated by co-transfected Wingless expression plasmid
- Measurement: 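Firefly luciferase from a tcf-site Wingless reporter, measured alongside co-transfected Renilla luciferase that tracks transfection; pathway stimulated by a Wingless plasmid; the firefly-to-Renilla ratio is not deposited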
- Direction: firefly reporter light: higher = more Wg reporter light, before normalisation; Renilla control light: higher = more transfected or surviving cells
- Rule for the call: 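a knock-down is a candidate when at least two out of four statistical tests show it departing from its plate mean; one test alone signals a weak candidate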
- Meaning of the calls: active = candidate regulator (raises or lowers reporter); inactive = not a candidate

gene knocked down,dsRNA no.,"firefly reporter light, replicate 1","firefly reporter light, replicate 2","Renilla control light, replicate 1","Renilla control light, replicate 2",activity call
Rpt2 (GeneID 42828),1,3795,7173,745,1414,inactive
snoRNA:Me28S-A982b + Uhg4 + snoRNA:Me28S-G3255a + 1 more,1,18682,,9243,,inactive
CG31099 (GeneID 326117),1,13036,,10333,,inactive
CG31268 (GeneID 318652),1,2026,,1425,,inactive
l(3)76BDm (GeneID 40140),1,5253,,2346,,inactive
CG15473 (GeneID 31401),1,17009,,9124,,inactive
tgo (GeneID 41084),1,4089,,1523,,inactive
Yp3 (GeneID 32339),1,21974,,14921,,inactive
CG18004 (GeneID 36154),1,24120,,5572,,inactive
Bgb (GeneID 38198),1,12738,,3314,,inactive
Proc-R (GeneID 31408),1,15376,,8566,,inactive
ppk28 (GeneID 32671),1,17085,,7591,,inactive
CG42565 (GeneID 37598),1,2600,4213,851,1905,inactive
CG15330 (GeneID 31715),1,11920,,6103,,inactive
CG17121 (GeneID 42721),1,24455,,19815,,inactive
P32 (GeneID 37006),1,14523,,3792,,inactive
CG6138 (GeneID 34454),1,3629,6640,929,3356,inactive
Gpa2 (GeneID 5740142),1,12393,,7184,,inactive
AP-2mu (GeneID 42642),1,8840,13689,1496,2165,inactive
Ubi-p63E (GeneID 38456),1,7.59e5,7.72e5,2.98e5,3.11e5,inactive
CG31678 (GeneID 35327),1,12967,,3176,,inactive
CG31678 (GeneID 35327),2,2324,7208,843,2755,inactive
X11Lbeta (GeneID 31997),1,20753,,8988,,inactive
X11Lbeta (GeneID 31997),2,20105,,9189,,inactive
CG11231 (retired record) (GeneID 43845),1,15713,,12420,,inactive
CG13423 (GeneID 37315),1,5827,,2122,,inactive
schlank (GeneID 50392),1,21906,,9091,,inactive
schlank (GeneID 50392),2,20516,,10118,,inactive
Prip (GeneID 36237),1,9180,,2656,,inactive
Trc8 (GeneID 43476),1,3088,6822,1383,2624,inactive
CG16998 (GeneID 38847),1,1573,6488,1296,2907,inactive
CG10508 (GeneID 40342),1,7691,,3180,,inactive
CG10508 (GeneID 40342),2,22938,,6304,,inactive
Pde1c (GeneID 34594),1,2716,6562,1192,3637,inactive
Pde1c (GeneID 34594),2,4928,7109,1155,2802,inactive
Pde1c (GeneID 34594),3,2880,7365,1075,2364,inactive
Pde1c (GeneID 34594),4,2792,7307,1429,3997,inactive
Pde1c (GeneID 34594),5,3473,5704,1403,3185,inactive
Pde1c (GeneID 34594),6,1606,7161,960,3459,inactive
CG10336 (GeneID 35122),1,5667,,2145,,inactive
CG34229 (GeneID 5740848),1,7914,,2595,,inactive
Gar1 (GeneID 37397),1,2166,9585,476,2787,inactive
E5 (GeneID 45396),1,2112,,861,,inactive
E5 (GeneID 45396),2,13764,,931,,inactive
Muc96D (GeneID 318737),1,4916,,2436,,inactive
Muc96D (GeneID 318737),2,8.08e5,7.76e5,4.03e5,3.29e5,inactive
Pgm2a (GeneID 35923),1,8586,,2982,,inactive
CG12384 (GeneID 36224),1,19395,7.03e5,6022,3.02e5,inactive
alpha-Est8 (GeneID 40899),1,13159,,2928,,inactive
Nt5c (GeneID 35984),1,10029,,2828,,inactive
CG10516 (GeneID 39738),1,8243,,3360,,inactive
HemK1 (GeneID 33902),1,9537,,4119,,inactive
CG34426 (GeneID 5740622),1,1462,5466,1448,2016,inactive
CG8237 (GeneID 35891),1,10154,,3162,,inactive
wa-cup (GeneID 40892),1,14166,,3664,,inactive
JhI-26 (GeneID 36819),1,10571,,3552,,inactive
aft (GeneID 37034),1,9632,,3459,,inactive
CG11374 (GeneID 33163),1,2768,6713,1121,2634,inactive
Arl5 (GeneID 38931),1,6577,,2138,,inactive
Usp5 (GeneID 38375),1,8246,,4112,,inactive
Jhbp15 (GeneID 42489),1,17516,,3700,,inactive
CG33257 (GeneID 2768960),1,5600,,2201,,inactive
Cpr73D (GeneID 39897),1,5136,,1959,,inactive
CG43064 (GeneID 12798207),1,2185,,777,,inactive
CG43338 (GeneID 35117),1,4.89e5,5.80e5,1.28e5,1.27e5,inactive
RpS19b (GeneID 42830),1,19907,,16777,,inactive
CG8925 (GeneID 41963),1,13945,,2903,,inactive
CG8925 (GeneID 41963),2,16141,,3292,,inactive
CG8925 (GeneID 41963),3,13989,,2995,,inactive
Glut1 (GeneID 38109),1,2700,,616,,inactive
Glut1 (GeneID 38109),2,4107,,1938,,inactive
Glut1 (GeneID 38109),3,15776,,5541,,inactive
CG8630 (GeneID 41629),1,12768,,2152,,inactive
CG31145 (GeneID 42784),1,2683,,1255,,inactive
CG31145 (GeneID 42784),2,19013,,14492,,inactive
CG31145 (GeneID 42784),3,19623,,7989,,inactive
CG31145 (GeneID 42784),4,22892,,12857,,inactive
ox (GeneID 45401),1,6070,,2328,,inactive
Eato (GeneID 34783),1,18658,,7616,,inactive
Eato (GeneID 34783),2,2169,5429,956,2426,inactive
ZnT35C (GeneID 34890),1,1824,4076,755,2000,inactive
Dh31-R (GeneID 36475),1,5837,,1783,,inactive
Dh31-R (GeneID 36475),2,5689,,2566,,inactive
Prx2 (GeneID 53578),1,14392,,9355,,inactive
crm (GeneID 31268),1,3093,9692,1968,3157,inactive
mRpL39 (GeneID 39627),1,6472,,2098,,inactive
Dys (GeneID 42327),1,4612,,2872,,inactive
Dys (GeneID 42327),2,4761,,1814,,inactive
Dys (GeneID 42327),3,15236,,4428,,inactive
Dys (GeneID 42327),4,18000,,2989,,inactive
Dys (GeneID 42327),5,14375,,3291,,inactive
Dys (GeneID 42327),6,15365,,3737,,inactive
Dys (GeneID 42327),7,13842,,2838,,inactive

A run of entries from the list above:
gene knocked down,dsRNA no.,"firefly reporter light, replicate 1","firefly reporter light, replicate 2","Renilla control light, replicate 1","Renilla control light, replicate 2",activity call
P32 (GeneID 37006),1,14523,,3792,,inactive
CG6138 (GeneID 34454),1,3629,6640,929,3356,inactive
Gpa2 (GeneID 5740142),1,12393,,7184,,inactive
AP-2mu (GeneID 42642),1,8840,13689,1496,2165,inactive
Ubi-p63E (GeneID 38456),1,7.59e5,7.72e5,2.98e5,3.11e5,inactive
